Results on one substance are retold here after article PMC6745524, “Diverse roles of TssA‐like proteins in the assembly of bacterial type VI secretion systems” (The EMBO Journal, 2019).

Protein sequences, listed by entry. Tags and fused reporters are not part of them.
UniProt P72350: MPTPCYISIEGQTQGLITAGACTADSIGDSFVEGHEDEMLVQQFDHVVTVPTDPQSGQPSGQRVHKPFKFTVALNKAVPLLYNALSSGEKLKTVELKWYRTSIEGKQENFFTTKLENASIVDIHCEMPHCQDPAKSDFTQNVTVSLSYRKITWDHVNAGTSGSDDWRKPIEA

No constants are given. Whether binding was seen depends on the method and setting. Sequences can lack the tags named with a protein.

The test concerns the target T1, TssAVC, bacterial two-hybrid fusion (Vibrio cholerae) (UniProt Q9KN46).
T1 sequence: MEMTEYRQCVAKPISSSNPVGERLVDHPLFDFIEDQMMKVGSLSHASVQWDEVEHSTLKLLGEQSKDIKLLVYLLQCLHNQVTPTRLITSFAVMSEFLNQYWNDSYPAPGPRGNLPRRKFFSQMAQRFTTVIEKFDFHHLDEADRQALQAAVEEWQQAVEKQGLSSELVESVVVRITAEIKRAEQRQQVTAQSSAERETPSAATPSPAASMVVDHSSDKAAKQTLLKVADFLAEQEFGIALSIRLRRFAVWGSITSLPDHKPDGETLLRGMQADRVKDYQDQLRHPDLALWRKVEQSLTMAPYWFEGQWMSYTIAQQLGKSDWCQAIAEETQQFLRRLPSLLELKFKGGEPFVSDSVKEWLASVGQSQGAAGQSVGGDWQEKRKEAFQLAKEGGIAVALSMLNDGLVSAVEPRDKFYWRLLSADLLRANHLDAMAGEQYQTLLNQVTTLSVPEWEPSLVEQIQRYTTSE
Kind of test: two-hybrid; bacterial two-hybrid system (Euromedex); cells incubated at 30°C for 24-48 h.

On to “Hcp, bacterial two-hybrid fusion (from UniProt P72350 1-172)”, for which the binding entry was “no binding”.
